PubChem BioAssay AID2685 (National Center for Advancing Translational Sciences (NCATS), 2010)
Out of some 320,000 compounds screened, about 2,100 (0.66%) were called active. This list was built around the results that the source calls inconclusive (neither active nor inactive); the mix of calls is not that of the screen. Calls come from the whole dose curve; as a rule, active = well fitted inhibition curve with a large enough effect in the signal ratio, with a control signal flat (not every such curve was filed as active); inconclusive = small, poorly fitted or top-dose-only effect, or effect the other way, or a change in a side signal; inactive = flat fitted curve, though single readings scatter; the % refers to the signal ratio. Potencies beside an inconclusive call are fits to weak or partial responses and may not hold up.

test: qHTS Assay for Lipid Storage Modulators in Drosophila S3 Cells; details: BODIPY lipid droplet fluorescence, 18-24 h, cells fed with added oleic acid; lipid storage change, negative = inhibition: at 46.1 µM (top of the series) unless noted
Outline: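 Laser-scanning cytometry quantifies lipid droplet accumulation (500–530 nm total intensity; droplet/cell object ratio) in oleic acid-fed (400 uM added) Drosophila S3 cells treated with a concentration series. 20 uM Triacsin C defined 100% inhibition.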
% is set by controls: 0 for no effect and ±100 for the full control effect; potency is the fitted concentration of half-maximal effect.

SMILES | Potency | lipid storage change, negative = inhibition
Cc1nc2cc(NS(=O)(=O)c3c(C)c(C)cc(C)c3C)ccc2s1 | inconclusive: 25.9 µM [falling, single point] | –
Cc1ccc(-n2c(C)cc(C(=O)Cn3nc(C(=O)O)c4ccccc4c3=O)c2C)cc1 | – | inconclusive: -21.1%
Cc1cccc2c1-c1sc(C(=O)Nc3nccs3)cc1CO2 | inconclusive: 0.461 µM [rising, single point] | –
Cc1cccc(C)c1NC1=NC(=S)N(c2ccc(N(C)C)cc2)C1(C)C | inconclusive: 11.6 µM [falling, partial curve, poor fit] | –
O=C(NCCN1CCCC1=O)C1CCC(=O)N(CCc2ccc(Cl)cc2)C1 (stereo unspecified) | – | inconclusive: 91.2%
O=C(O)Cc1ccc2ocnc2c1 | – | inconclusive: 20.6%
CCc1ccc(/C=C/C(=O)c2ccc(S(=O)(=O)N(C)C)cc2)cc1 | – | inconclusive: -48.5%
COc1ccc(CN(C)C(=O)C2CCN(C(=O)Nc3ccccc3)CC2)cc1 | – | inconclusive: -7.98%
CN1CC(=O)N(CC(=O)N2N=C(c3ccc(Cl)cc3)CC2c2ccco2)C1=O (stereo unspecified) | – | inconclusive: -20.3%
Nc1cc([N+](=O)[O-])ccc1O | active: 9.2 µM | –
CC1CCCCC1NC(=O)c1ccc(NS(=O)(=O)c2ccc3[nH]c(=O)[nH]c3c2)cc1 (stereo unspecified) | – | inconclusive
O=c1c2ccccc2oc2nc3n(c(=O)c12)CCCS3 | – | inconclusive: 28.1%
O=C(OCc1nc2ccccc2c(=O)[nH]1)c1cccs1 | – | inconclusive: -38%
NC(=O)c1ccc(NC(=O)CSc2nnc(-c3ccccn3)n2N)cc1 | – | inactive
Cc1cccc(C)c1OCC(=O)N/N=C/c1ccc2c(c1)OCO2 | – | inconclusive: -23.8%
Cc1sc(NC(=O)c2ccco2)c(CN2CCN(c3ccc(F)cc3)CC2)c1C | – | inconclusive: -0.998%
CCc1ccccc1NC(=O)CCN1C(=O)C2CC=CCC2C1=O (stereo unspecified) | – | inconclusive: 10.1%
C=CCn1c(O)c(N=NC(=S)Nc2ccccc2F)c2ccccc21 | – | inconclusive: -43.9%
CCOc1ccc(NC(=O)CN(C)C(=O)c2cc(S(=O)(=O)N(C)C)ccc2N2CCCC2)cc1OCC | – | inconclusive
CCn1nc(C(=O)OCC(=O)N(CCC#N)c2ccccc2)c2ccccc2c1=O | – | inconclusive: -9.1%
O=C(CN1CCCCCC1)Nc1ccc(Br)cc1[N+](=O)[O-] | – | inconclusive: -32.5%

Single records, from the list above. Order of values: Potency	lipid storage change, negative = inhibition
O=c1c2ccccc2oc2nc3n(c(=O)c12)CCCS3 in the list: –	inconclusive: 28.1%
Cc1sc(NC(=O)c2ccco2)c(CN2CCN(c3ccc(F)cc3)CC2)c1C in the list: –	inconclusive: -0.998%
C=CCn1c(O)c(N=NC(=S)Nc2ccccc2F)c2ccccc21 in the list: –	inconclusive: -43.9%

Next part

SMILES | Potency | lipid storage change, negative = inhibition
COc1ccc(NC(=O)C2CCN(c3cc(-c4ccccc4)nc4ncnn34)CC2)cc1OC | – | inconclusive: 25.4%
Nc1c(C(=O)NCc2ccccc2)nnn1Cc1ccccc1 | inconclusive: 0.651 µM [falling, partial curve, poor fit] | –
COc1ccc(S(=O)(=O)Nc2ccccc2C(=O)N2CCOCC2)cc1F | – | inconclusive: -53.9%
Cc1c(C)c(C)c(S(=O)(=O)Nc2ccc3[nH]c(=O)[nH]c3c2)c(C)c1C | inconclusive: 18.4 µM [falling, single point] | –
O=C(c1ccccc1F)N1CCC(N2CCCCCC2)CC1 | – | inconclusive: -10.6%
Cc1ccc(C(=O)COC(=O)C(C)N2C(=O)C3C4CCC(C4)C3C2=O)cc1 (stereo unspecified) | – | inconclusive: 16%
C=CCn1c(=N)c(S(=O)(=O)c2ccc(C)c(C)c2)cc2c(=O)n3ccccc3nc21 | – | inconclusive: -1.71%
O=C(NCCc1ccccc1F)C1CCCN1S(=O)(=O)c1ccc2ccccc2c1 (stereo unspecified) | – | inconclusive: -26.1%
CN1CCN(c2ccc(NC(=O)c3ccc4c(c3)OCO4)cc2)CC1 | – | inconclusive: -2.15%
O=C(CSc1nc2ccccc2c(=O)n1CC1CCCO1)NCC1CCCO1 (stereo unspecified) | – | inconclusive: -16.3%
CCCCn1nc(C(=O)Nc2ccc3c(c2)OCCO3)c2ccccc2c1=O | – | inconclusive: -11.8%
O=C(N/N=C/c1cccc(F)c1)c1ccc(Cl)cc1 | – | inconclusive: 27.4%
Cc1cc(F)ccc1NC(=O)Cn1c(C)csc1=O | – | inconclusive: 92.1%
CCOc1ccc(/C(O)=C2/C(=O)C(=O)N(CC3CCCO3)C2c2ccc(C)o2)cc1 (stereo unspecified) | inconclusive: 29.1 µM [rising, single point] | –
Cn1c(CSc2ncccn2)nnc1SCC(=O)N1CCCc2ccccc21 | – | inconclusive: -2.72%
COc1cccc(C2CC(c3ccccc3)=NN2S(=O)(=O)c2ccccc2)c1OC (stereo unspecified) | – | inconclusive: 17.3%
COc1ccc(CC(=O)NC(C)CCc2ccccc2)cc1OC (stereo unspecified) | – | inconclusive: -36.1%
COc1ccc(CNC2CCCc3ccccc32)cc1OC (stereo unspecified) | – | inconclusive: 15.8%
Cc1cc(C)nc(Sc2c(C)nn(-c3ccccc3)c2C)n1 | – | inconclusive: -16.3%
Cc1cc2nc3c(=O)[nH]c(=O)[nH]c3nc2c([N+](=O)[O-])c1N | – | inconclusive: -2.95%
COC1(NC(=O)c2ccccc2)C(C)=CC(=O)C=C1C | – | inconclusive: 1.47%

3 entries already listed, arranged by SMILES length, ascending.
SMILES | Potency | lipid storage change, negative = inhibition
Nc1c(C(=O)NCc2ccccc2)nnn1Cc1ccccc1 | inconclusive: 0.651 µM [falling, partial curve, poor fit] | –
Cc1c(C)c(C)c(S(=O)(=O)Nc2ccc3[nH]c(=O)[nH]c3c2)c(C)c1C | inconclusive: 18.4 µM [falling, single point] | –
CCOc1ccc(/C(O)=C2/C(=O)C(=O)N(CC3CCCO3)C2c2ccc(C)o2)cc1 (stereo unspecified) | inconclusive: 29.1 µM [rising, single point] | –

(more compounds)

SMILES | Potency | lipid storage change, negative = inhibition
COC(=O)c1ccc(N2CCN(C(C)=O)CC2)c(NC(=O)c2cccnc2)c1 | – | inconclusive: 35.8%
CCCn1c(N)c(N2CCCCC2)c(=O)n(CC(=O)Nc2ccccc2)c1=O | – | inconclusive: 3.95%
O=C(NC1CCCCC1)N(Cc1nc2ccccc2c(=O)[nH]1)C1CCCCC1 | – | inconclusive: 36.2%
CC(/C=C1\SC(=S)N(c2ccc(C(=O)O)cc2)C1=O)=C\c1ccccc1 | – | inconclusive: 9.08%
O=C(CN1C(=O)c2cccc3cccc1c23)N1CCN(c2ccc(F)cc2)CC1 | – | inconclusive: 20.5%
CCOC(=O)C1=C(N)Oc2cc(O)ccc2C1c1ccccc1 (stereo unspecified) | – | inconclusive: -19%
CN(C)S(=O)(=O)c1ccc(N2CCCC2)c(C(=O)N2CCN(c3ccc([N+](=O)[O-])cc3)CC2)c1 | – | inconclusive: 2.99%
Cn1c(SCC(=O)Nc2ccccc2)nc2ccccc2c1=O | inconclusive: 5.17 µM [activator, single point] | –
COc1cc(C)nc(Oc2ccc(OCCOc3ccc(C)cc3)nn2)n1 | – | inconclusive: -10.1%
O=C(Nc1cccnc1)c1cc(-c2ccc(Br)cc2)nc2ccccc12 | inconclusive: 10.3 µM [falling, partial curve, poor fit] | –
NC(=S)N/N=C1\CCSc2ccc(Cl)cc21 | – | inconclusive: 10.2%
O=C(Nc1ccc(C(=O)NCC2CCN(Cc3ccccc3F)CC2)cc1)C1=CSCCO1 | inconclusive: 13 µM [activator, partial curve, poor fit] | –
c1ccc(COc2ccc(CN3CCN(c4ccccn4)CC3)cc2)cc1 | – | inconclusive: -19.1%
S=c1[nH]ccn1-c1ccc(Cl)cc1 | – | inconclusive: 12.7%
O=C(N=C1SC2CS(=O)(=O)CC2N1c1ccc(F)cc1)C1CC1 (stereo unspecified) | inconclusive: 16.4 µM [activator, partial curve, poor fit] | –
COc1ccc(OCc2nnc(SCC(=O)Nc3ccccc3F)o2)cc1 | inconclusive: 18.4 µM [falling, single point] | –
O=C1Nc2ccccc2/C1=N\N1CCOCC1 | – | inconclusive: 11.8%
CCOc1ccc(S(=O)(=O)N2CCN(C(=O)c3cc(C4CC4)nn3-c3ccccc3)CC2)cc1 | – | inactive
CCN(CC(=O)Nc1ccc(NC(C)=O)cc1)C(=O)Cc1cccc2ccccc12 | – | inconclusive: -33.6%
COc1ccc(C(CC(=O)NCCCN2CCOCC2)NS(=O)(=O)c2ccc(C)cc2)cc1 (stereo unspecified) | – | inconclusive: -21.8%
Cc1cc(C)n2c(SCC(=O)Nc3ccccc3C#N)nnc2n1 | inconclusive: 14.6 µM [activator, partial curve] | –

SMILES | Potency | lipid storage change, negative = inhibition
O=C(c1cccc(S(=O)(=O)N2CCOCC2)c1)N1CCCC1 | – | inconclusive: 0.0074%
CC1(C)CC(=O)C=C(NCCc2ccc(S(N)(=O)=O)cc2)C1 | active: 29.1 µM | –
COc1ccc(C2NC(c3ccc(OC)cc3)C(C)C(=O)C2C)cc1 (stereo unspecified) | – | inconclusive: 18.2%
O=C(c1ccc(-c2ccc(Cl)cc2)o1)N1CCN(c2ccc([N+](=O)[O-])cc2Cl)CC1 | – | inconclusive: 14.7%
CC(C)Cc1ccccc1O | inconclusive: 29.1 µM [activator, single point] | –
COC(=O)c1ccc(CN2CCC(CO)(Cc3cccc(OC)c3)CC2)cc1 | – | inactive
CCOc1ccc(NC(=O)CN(C)C(=O)c2cc(C)oc2C)cc1OCC | – | inconclusive: 39.3%
CCCCN(C)CCNC(=O)C(=O)c1c(C)[nH]c2ccccc12 | – | inconclusive: 5.13%
CCc1cc(=O)oc2cc(OCC(=O)NCc3ccccn3)ccc12 | – | inconclusive: -25.1%
COc1ccc(N2CCOCC2)c(NC(=O)c2cc3ccccc3o2)c1 | – | inconclusive: 29.2%
N=c1c(C(=O)NCc2ccco2)cc2c(=O)n3ccccc3nc2n1Cc1ccccc1 | – | inactive
CNc1ccc(/C=C(\CCC(=O)O)c2nc3ccccc3s2)cc1[N+](=O)[O-] | inconclusive: 29.1 µM [activator, single point] | –
CCCC(O)(CCC)C(=O)NNc1ccccc1 | – | inconclusive: 125%
Nc1nonc1-c1nc2ccccc2n1CC(=O)N/N=C/c1ccc(-c2ccccc2C(=O)O)o1 | inconclusive: 23.1 µM [activator, single point] | –
COCCn1c(-c2ccc(Cl)cc2)cnc1SCC(=O)NCCc1ccc(OC)c(OC)c1 | – | inconclusive: -45.8%
NC(=O)COc1ccc(NC(=O)c2ccccc2-c2ccccc2)cc1 | – | inconclusive: -30.5%
O=C(CSc1ncccn1)N1CCC(Cc2ccccc2)CC1 | – | inconclusive: 34%
CC(=O)Nc1c(C(=O)C2CC2)oc2ccccc12 | inconclusive: 6.51 µM [activator, partial curve] | –
